# Hit rate of the full screen: of about 360,000 compounds, about 9,100 (2.5%) were called active. Inconclusive results, whose numbers are uncertain, are shown with a selection of clear calls. No stated cut-off is given here; in the data, active means max response below about -50%; inconclusive means no clear call, values can overlap the other calls; inactive means above that.
# Chains of the proteins cited; added tags and fusions are not shown.
# UniProt P35462, whole entry, looked up: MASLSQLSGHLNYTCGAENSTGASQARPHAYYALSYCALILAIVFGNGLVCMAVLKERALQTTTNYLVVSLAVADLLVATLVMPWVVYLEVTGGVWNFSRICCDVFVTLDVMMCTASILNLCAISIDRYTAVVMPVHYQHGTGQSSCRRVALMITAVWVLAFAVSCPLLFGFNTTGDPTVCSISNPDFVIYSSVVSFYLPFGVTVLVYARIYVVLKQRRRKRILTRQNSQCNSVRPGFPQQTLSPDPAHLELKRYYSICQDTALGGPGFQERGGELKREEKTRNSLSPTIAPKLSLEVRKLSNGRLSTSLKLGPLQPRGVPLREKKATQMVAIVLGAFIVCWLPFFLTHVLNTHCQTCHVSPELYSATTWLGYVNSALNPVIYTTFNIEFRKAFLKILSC
# Molecular target: D(3) dopamine receptor (Homo sapiens) (UniProt P35462)
# Assay: qHTS of D3 Dopamine Receptor Antagonist: qHTS
# Details: D3R cells, DiscoveRx beta-arrestin luminescence, antagonist mode; active compounds read low
# How it was run: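 Cells plated overnight at 1500 cells/well, then exposed to library compounds with dopamine controls for 90 minutes at 37 degrees C. DiscoveRx reagent added for 30–60 minutes at room temperature; luminescence read, quantitative HTS format.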
# On the % scale 0 is the no-effect control and ±100 the full control effect.
row,Compound,"max response, negative = inhibition"
1,O=C(Nc1sc2c(c1C(=O)O)CCCCC2)c1ccco1,inactive: -15.1%
2,O=C(c1cc2ncc(Br)cn2n1)N1CCOCC1,inconclusive: -36%
3,CC(=O)c1cccc(S(=O)(=O)NC(C)C2CC3CCC2C3)c1 (stereo not given),inconclusive: -32.2%
4,OC(CNCCNc1ncccc1C(F)(F)F)COc1ccc(F)cc1 (stereo not given),inactive: -11.3%
5,CCN1CCN(c2cc(-c3ccccc3)nc3cc(-c4cccc(F)c4)nn23)CC1,inconclusive: -35%
6,OCC1CCCN(C2CCN(Cc3nc(Cc4cccc(C(F)(F)F)c4)no3)CC2)C1 (stereo not given),inactive: 14.5%
7,Nc1[nH]c(C(=O)c2ccccc2)c(-c2ccc(Cl)cc2Cl)c1C(=O)c1ccc(Br)cc1,inactive: -10.1%
8,O=C(O)[C@@H]1[C@H]2C[C@H]3c4[nH]c5ccccc5c4CCN3C[C@@H]2CC[C@@H]1O,active: -61%
9,C/C(=N\NC(=O)c1ccccc1O)c1c(O)cc(C)oc1=O,inconclusive: -32.1%
10,COc1ccc(C2C(C(=O)c3sc(C)nc3C)=C(O)C(=O)N2CCN2CCOCC2)cc1 (stereo not given),inconclusive: -39.4%
11,Oc1ccc2ccccc2c1CN1CCN(C/C=C/c2ccccc2)CC1,active: -56.2%
12,CCc1c(C)sc(NC(=O)c2cc(-c3cc(OC)ccc3OC)on2)c1C#N,inactive: -10.4%
13,COC(=O)c1ccc(NC(=O)C2CCCN2S(=O)(=O)c2ccc(F)cc2)cc1 (stereo not given),inconclusive: -49.2%
14,COc1ccc2c(-c3ccc(S(N)(=O)=O)cc3)c(-c3ccc(S(C)(=O)=O)cc3)sc2c1,inconclusive: -34.7%
15,Cc1ccc(NC(=O)CCN2CCc3ccccc3C2)cc1,active: -94.8%
16,CCOC(=O)C1CCCN(C(=O)c2ccc(CS(=O)(=O)Cc3ccccc3C)o2)C1 (stereo not given),inconclusive: -34.4%
17,COc1ccc(C2=CC(=O)C[C@H](c3ccc(OC)cc3)C2)cc1,inconclusive: -43.1%
18,Cc1cc(-c2cccs2)c2c(n1)sc1c(=O)[nH]c(=O)[nH]c12,active: -83.7%
19,O=C1NC[C@H](Cc2ccccc2)N(CC2CCN(CCc3ccc(-c4ccccc4)cc3)CC2)C1=O,active: -78.1%
20,CC(=O)Oc1ccc(C(=O)c2ccccc2)c(OC(C)=O)c1,inconclusive: -33.2%
21,Cn1c(=O)oc2cc(S(=O)(=O)NCCC(=O)NCCc3ccc(Cl)cc3)ccc21,inconclusive: -32%
22,COc1ccc(Nc2nc(C)nc3c2nnn3Cc2ccccc2)cc1OC,inactive: 0%

row,Compound,"max response, negative = inhibition"
1,Cc1noc(C)c1COC(=O)C1CCN(S(=O)(=O)c2ccc(F)cc2)CC1,inconclusive: -44.6%
2,O=C(Nc1ccc(Cl)cc1)/C(=C/c1cccc(O)c1)c1nc2ccccc2s1,inconclusive: -44.3%
3,CC(=O)Oc1ccc(N2C(=O)c3cccc4c([N+](=O)[O-])ccc(c34)C2=O)cc1,active: -99.9%
4,Cn1c(=S)c2[nH]c(SCCN3CCCC3)nc2n(C)c1=O,inactive: -18.1%
5,Cc1ccc(NC(=O)[C@H](NC(=O)[C@@H]2Cc3ccccc3CN2)c2ccccc2)cc1,active: -99.7%
6,O=C(COC(=O)c1ccc(Cl)nc1)NCc1ccc(F)cc1,active: -50.2%
7,COc1ccc(/C=N/Nc2nc3ccccc3s2)cc1O,inactive: -17.6%
8,CC(C)C[C@H]1CN(CCCC[C@H]2CNC(=O)C(=O)N2CCc2ccccc2)C(=O)C(=O)N1CC1CCCCC1,inactive: 6.06%
9,N#Cc1ccc(-c2ccc(F)cc2)nc1SCC(=O)Nc1sc2c(c1C#N)CCC2,inconclusive: -33.9%
10,Cc1ccc(-c2cc(C#N)c(=O)n(Cc3c(Cl)cccc3Cl)c2)cc1,inconclusive: -40.9%
11,COC(=O)c1ccc(N2CCN(C)CC2)c(NC(=O)c2sc3ccccc3c2Cl)c1,inactive: 32.8%
12,CCn1c(N2CCN(S(=O)(=O)c3ccc(Cl)cc3)CC2)nc2ccccc21,inactive: 13.4%
13,CN1c2ccccc2C(O)=C(C(=S)Nc2ccc(Cl)cc2)S1(=O)=O,active: -87.2%
14,COc1ccc(-c2cc(C(=O)Nc3sc4c(c3C#N)CCCC4)c3ccccc3n2)cc1,inconclusive: -47.8%
15,Cc1cc(Br)cn2c(Cc3ccsc3)c(-c3ccc(F)cc3)nc12,inactive: 11.2%
16,Cc1cccc(C(=O)N2CCC(=O)N([C@H](COCc3cccc(C(F)(F)F)c3)Cc3ccccc3)CC2)c1,inactive: 13.8%
17,CCOC(=O)[C@H]1[C@H]2COc3ccc(Br)cc3[C@@H]2N2C(=O)c3cc(F)c(F)cc3NC(=O)[C@@]12C,inconclusive: -36.4%
18,COc1cc2c(cc1NC(=O)COC(=O)[C@@H](NS(=O)(=O)c1cccc(Cl)c1)C(C)C)oc1ccccc12,inactive: 3.88%
19,Cc1ccc(Nc2nc3ccc(Cl)cc3n3cnnc23)cc1F,inactive: -3.86%
20,COc1ccccc1N1CCN(CC(O)COCc2cccs2)CC1 (stereo not given),active: -61.5%
21,CN1C(=O)C2(c3ccccc31)N(C)CC(c1ccccn1)C21SC(=S)N(Cc2ccco2)C1=O (stereo not given),inconclusive: -41%
22,CC(C(=O)O)n1cc(Cl)cn1 (stereo not given),inconclusive: -31.1%

# Single values from the entries so far.
# COc1ccc(C2C(C(=O)c3sc(C)nc3C)=C(O)C(=O)N2CCN2CCOCC2)cc1 (stereo not given) | max response, negative = inhibition: inconclusive: -39.4%
# O=C1NC[C@H](Cc2ccccc2)N(CC2CCN(CCc3ccc(-c4ccccc4)cc3)CC2)C1=O | max response, negative = inhibition: active: -78.1%
# CC(C)C[C@H]1CN(CCCC[C@H]2CNC(=O)C(=O)N2CCc2ccccc2)C(=O)C(=O)N1CC1CCCCC1 | max response, negative = inhibition: inactive: 6.06%

# The listing continues.

row,Compound,"max response, negative = inhibition"
1,CCC1CCCCN1CCCNC(=O)c1ccc(/C=C2/Sc3ccccc3NC2=O)cc1 (stereo not given),inconclusive: -32.4%
2,CCOc1ccc(NC(=O)Cn2nc(C(N)=O)c3ccccc3c2=O)cc1S(=O)(=O)N1CCCC1,inconclusive: -38.9%
3,O=C1Nc2ccccc2Nc2ncccc21,inactive: 15.7%
4,O=[N+]([O-])c1ccccc1Nc1ccc(O)cc1,inconclusive: -35.5%
5,CCN(Cc1ccccc1)S(=O)(=O)c1ccc(C(=O)N(CCCN(C)C)c2nc3c(F)cccc3s2)cc1,inactive: -6.57%
6,O=C(CSc1ccc2ccccc2n1)Nc1ccc(N2CCOCC2)cc1,inactive: 3.08%
7,COc1ccc(C(=O)NCC(c2ccco2)N2CCCC2)cc1S(=O)(=O)N1CCCCC1C (stereo not given),inconclusive: -33.4%
8,COc1cc(/C=C2/SC(=S)N(Cc3ccccc3)C2=O)cc(OC)c1O,inconclusive: -37%
9,Cc1ccc([C@@H]2CC=C(C(=O)O)[C@H](c3ccc(F)cc3)N2S(=O)(=O)c2ccc(C)cc2)cc1,active: -82.9%
10,CC(C)CC1(C)NC(=O)N(CC(=O)Nc2ccc3c(c2)CCC3)C1=O (stereo not given),active: -55.1%
11,CSCc1ccc(C(=O)OCC(=O)NC2CCCC2)o1,inactive: -10.2%
12,COC(=O)/C(C#N)=C/c1c[nH]c2ccccc12,inactive: 0.548%
13,COc1ccc2[nH]c(=O)c(CN(Cc3ccco3)C(c3nnnn3Cc3ccccc3)C(C)C)cc2c1 (stereo not given),inactive: 23.3%
14,CC1CCc2sc(C(=O)NC3CCCCC3)cc2C1 (stereo not given),inactive: -6.08%
15,COc1ccc(CN2CCCC(C(=O)N3CCCC3)C2)cc1 (stereo not given),inconclusive: -41.1%
16,CCN(CC)C(=O)C1CCCN(Cc2ccc(OC)c(C)c2)C1 (stereo not given),inconclusive: -33.5%
17,Cc1ccccc1-n1c(C)cc(/C=C2\NC(=O)NC2=O)c1C,inconclusive: -42.7%
18,Cn1cc(CN2CCCC(CO)(Cc3ccccc3)C2)cn1 (stereo not given),inactive: 3.29%
19,Cn1c(SCC(=O)Nc2ccc3cn[nH]c3c2)nnc1-c1cccs1,inconclusive: -49.2%
20,COc1ccc(/C=N/n2c(-c3ccc(C)cc3)n[nH]c2=S)cc1OC,inconclusive: -48.2%
21,CCC(C)c1ccc(OCCCCN2CCOCC2)cc1 (stereo not given),active: -64.6%
22,CN(C)c1ccc(C(=S)N2CCN(S(=O)(=O)c3ccccc3)CC2)cc1,inconclusive: -35.7%

row,Compound,"max response, negative = inhibition"
1,Cc1ccc(CNC(=O)C2c3ccccc3C(=O)N3CCc4ccccc4C23)o1 (stereo not given),inactive: 15.5%
2,O=C(/C=C/c1cccnc1)c1ccc(NC(=O)c2cccc(Br)c2)cc1,inconclusive: -42.6%
3,CC(C)(CNC(=O)C1c2ccccc2-c2ccccc21)N1CCOCC1,inactive: 1.12%
4,COc1ccc(-c2cn[nH]c2-c2ccc(OCc3ccc([N+](=O)[O-])cc3)cc2O)cc1OC,inactive: 0%
5,Cc1cc(C)cc(NC(=O)C(OC(=O)c2cccs2)c2ccccc2)c1 (stereo not given),inactive: -12.9%
6,CC(Oc1ccccc1)C(=O)Nc1ccc(NC(=O)c2ccccc2)cc1 (stereo not given),inconclusive: -30.3%
7,CC1CCC(NC(=O)C(NC(=O)c2ccccc2)C(C)C)CC1 (stereo not given),inconclusive: -31.5%
8,CCCc1[nH]nc2c1C(c1ccc(O)c(OC)c1)C(C#N)=C(N)O2 (stereo not given),inactive: 2.94%
9,Cc1cccc(-n2nc(C)cc2N)c1,inconclusive: -33.9%
10,Clc1ccc(C[n+]2cc(-c3ccccc3)n3c2CCC3)cc1,inconclusive: -42%
11,CC[C@@]1(C(=O)OC)N[C@H](CN(C)C(=O)Nc2ccc(C)cc2)[C@@H]2C(=O)N(Cc3ccccc3)C(=O)[C@@H]21,inconclusive: -41.7%
12,Cn1c(=O)c2c(ncn2CC(=O)OCC(=O)NNC(=O)c2ccc(Cl)cc2)n(C)c1=O,active: -124%
13,Cc1noc(C)c1S(=O)(=O)N(C)C[C@H]1Oc2ccc(NS(=O)(=O)c3ccc(F)cc3)cc2C(=O)N([C@H](C)CO)C[C@@H]1C,inactive: 0%
14,O=C(NCc1ccc(F)cc1)C1CCCN1C(=O)Nc1cccc(F)c1 (stereo not given),inconclusive: -31.9%
15,CC(NNC(=S)N1CCN(c2ccccn2)CC1)c1nccc2ccccc12 (stereo not given),inconclusive: -45.3%
16,CCOC(=O)C1(Cc2ccccc2C(F)(F)F)CCN(C(C)COC)CC1 (stereo not given),inconclusive: -30.3%
17,Cn1cnc([N+](=O)[O-])c1Sc1nc2ccccc2[nH]1,active: -54.1%
18,CCOC(CCNC(=O)c1cc(-c2cccs2)nc2ccccc12)OCC,inactive: 39.5%
19,O=[N+]([O-])c1ccc(Nc2nc(N3CCOCC3)nc(N3CCOCC3)n2)cc1,inconclusive: -46%
